Results from patent publication US9771563B2, “Chemical approaches for generation of induced pluripotent stem cells” (The Scripps Research Institute, priority 2008, dated 2017).
At least one structure is not confirmed: it was looked up by name or label, or the drawing left a doubt.

Tests used:
[1] = test system: mouse embryonic fibroblasts (129 or OG2 MEFs); test: Screen for iPSC generation from MEFs transduced with Oct4/Klf4 (OK); format: cell-based; details: 1 μM BIX in medium, compound 0.5-2 μM, not followed up
Description: Unmodified MEFs derived from E13-14 embryos of the 129 mice were used for the initial screen. MEFs were plated on Matrigel at 3.5×10^4 cells/well of a 6-well plate and transduced with OK (retroviral vectors expressing Oct4 and Klf4) alone. Within 14-21 days, treated cells were assessed for the appearance of colonies that had the characteristic embryonic stem cell (ESC) colony morphology and were positive for the pluripotency marker alkaline phosphatase (ALP). Such OK-transduced cells generated only a few small non-compact colonies, which were weakly positive for ALP expression. These colonies initially appeared within 21 days after viral transduction and were difficult to expand. Therefore, such assay system offered a clean background for the identification of small molecules having desirable reprogramming inducing activity. Using this system, compounds from a library of around 2000 known small molecules (see Experimental Procedures below) were screened and were identified as hits when they induced the appearance of ESC colonies that were strongly positive for ALP within 14-21 days after treatment. […] We observed that when MEFs were treated with BIX after OK viral transduction, compact colonies with strong ALP expression could be readily detected within approximately 14-21 days. […]

cellular reprogramming = test: Enhancement of cellular reprogramming by nuclear receptor ligands; format: cell-based

Compound	hit in second synergist screen [1]	cellular reprogramming (cellular reprogramming; at 1 μM)	cellular reprogramming (cellular reprogramming; used at 5 μM)
C[C@@H]1C[C@H]2[C@@H]3CCC4=CC(=O)C=C[C@]4(C)[C@@]3(F)[C@@H](O)C[C@]2(C)[C@@]1(O)C(=O)CO [dexamethasone]	primary hits	can enhance cellular reprogramming	–
CC1(COc2ccc(CC3SC(=O)NC3=O)cc2)CCCCC1 (stereo not drawn) [ciglitazone]	–	–	can enhance cellular reprogramming
